These are yes or no findings as the source states them, for the method shown. Some entries that bind do so weakly or less than the wild type.
Key:
[1] = target: Sir4C (Sir4 C-terminal domain, residues 747-1358) (S. cerevisiae) (UniProt P11978); experiment: co-purification of co-expressed proteins; Sir proteins co-expressed in baculovirus-infected insect sf21 cells and purified together (calmodulin column among the steps); SDS-PAGE, Coomassie
[2] = target: Sir4 (full-length) (S. cerevisiae) (UniProt P11978); experiment: as above
[3] = target: Sir4C (Sir4 C-terminal domain, residues 747-1358) (S. cerevisiae) (UniProt P11978); experiment: co-sedimentation; glycerol density gradient sedimentation of the purified complex: 200 ul calmodulin-column eluate on a 4 ml 5-25% glycerol gradient, 10 mM TEA pH8, 150 mM sodium chloride, 0.01% Tween-20, 18 h at 4°C; fractions on SDS-PAGE, SyproRuby; both purified
[4] = target: Sir4 (full-length) (S. cerevisiae) (UniProt P11978); experiment: as above
[5] = target: T1, Sir1, two-hybrid bait (S. cerevisiae) (UniProt P21691); experiment: two-hybrid; yeast two-hybrid in strain GA181; Sir4N, Sir4N^GG or Sir4N^DD as prey; Yku80, Sir1 or Sif2 as bait; beta-galactosidase read-out
T1 sequence: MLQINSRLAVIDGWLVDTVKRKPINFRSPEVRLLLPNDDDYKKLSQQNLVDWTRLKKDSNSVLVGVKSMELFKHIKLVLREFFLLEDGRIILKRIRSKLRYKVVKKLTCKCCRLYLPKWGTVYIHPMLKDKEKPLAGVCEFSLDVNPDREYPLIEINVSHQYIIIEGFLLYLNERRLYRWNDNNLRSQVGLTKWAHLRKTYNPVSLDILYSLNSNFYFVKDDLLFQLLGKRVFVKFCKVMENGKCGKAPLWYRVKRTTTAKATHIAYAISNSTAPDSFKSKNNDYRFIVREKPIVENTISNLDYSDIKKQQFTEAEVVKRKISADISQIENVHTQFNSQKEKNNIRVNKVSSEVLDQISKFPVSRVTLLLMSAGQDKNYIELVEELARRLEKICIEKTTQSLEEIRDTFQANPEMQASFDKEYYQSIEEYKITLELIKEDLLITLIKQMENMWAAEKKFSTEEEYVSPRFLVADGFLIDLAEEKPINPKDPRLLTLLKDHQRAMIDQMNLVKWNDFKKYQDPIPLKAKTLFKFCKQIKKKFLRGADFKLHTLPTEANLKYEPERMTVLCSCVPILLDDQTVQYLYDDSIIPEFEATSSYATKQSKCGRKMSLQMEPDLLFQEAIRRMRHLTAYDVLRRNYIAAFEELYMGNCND

By UniProt entry, the sequences of proteins in these tests, tags left out. Where a name states a change or a piece, a line headed by the entry shows the natural chain unless it says otherwise. Residues count along the entry.
UniProt P11978: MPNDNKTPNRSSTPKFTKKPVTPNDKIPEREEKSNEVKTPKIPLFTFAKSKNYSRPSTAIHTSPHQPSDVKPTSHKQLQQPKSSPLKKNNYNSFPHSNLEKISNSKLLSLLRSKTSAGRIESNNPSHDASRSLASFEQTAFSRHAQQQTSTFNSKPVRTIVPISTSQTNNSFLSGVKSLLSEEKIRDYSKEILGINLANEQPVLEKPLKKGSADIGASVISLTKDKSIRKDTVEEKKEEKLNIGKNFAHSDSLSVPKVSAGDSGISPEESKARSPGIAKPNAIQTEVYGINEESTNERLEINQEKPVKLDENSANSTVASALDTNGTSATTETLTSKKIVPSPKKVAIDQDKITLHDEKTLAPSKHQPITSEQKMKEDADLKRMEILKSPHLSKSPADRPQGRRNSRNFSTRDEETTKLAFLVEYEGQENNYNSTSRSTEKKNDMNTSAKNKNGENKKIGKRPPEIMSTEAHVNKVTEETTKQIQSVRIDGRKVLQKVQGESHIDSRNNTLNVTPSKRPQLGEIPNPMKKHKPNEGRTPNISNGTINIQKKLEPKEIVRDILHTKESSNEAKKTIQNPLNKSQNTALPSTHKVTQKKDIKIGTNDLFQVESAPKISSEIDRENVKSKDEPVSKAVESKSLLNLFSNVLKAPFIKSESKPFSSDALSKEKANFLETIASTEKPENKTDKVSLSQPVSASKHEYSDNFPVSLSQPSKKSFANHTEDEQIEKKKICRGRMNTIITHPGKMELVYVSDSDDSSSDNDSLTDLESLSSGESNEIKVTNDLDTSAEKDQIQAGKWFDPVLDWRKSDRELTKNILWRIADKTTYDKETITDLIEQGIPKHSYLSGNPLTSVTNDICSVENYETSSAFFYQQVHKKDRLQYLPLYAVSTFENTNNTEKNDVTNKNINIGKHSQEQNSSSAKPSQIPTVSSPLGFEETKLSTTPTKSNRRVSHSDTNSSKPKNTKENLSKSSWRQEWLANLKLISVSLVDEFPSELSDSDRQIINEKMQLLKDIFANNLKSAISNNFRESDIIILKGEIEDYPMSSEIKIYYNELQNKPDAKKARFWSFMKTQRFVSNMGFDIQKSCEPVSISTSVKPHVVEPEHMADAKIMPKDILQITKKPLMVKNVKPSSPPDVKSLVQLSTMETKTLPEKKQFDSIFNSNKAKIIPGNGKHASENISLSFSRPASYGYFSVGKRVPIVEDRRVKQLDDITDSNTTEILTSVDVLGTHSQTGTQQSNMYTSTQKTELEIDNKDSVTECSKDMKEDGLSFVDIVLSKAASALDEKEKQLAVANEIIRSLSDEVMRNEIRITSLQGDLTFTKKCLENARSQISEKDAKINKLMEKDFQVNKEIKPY
Sir4C (Sir4 C-terminal domain, residues 747-1358): residues 747-1358 of P11978
UniProt P06701: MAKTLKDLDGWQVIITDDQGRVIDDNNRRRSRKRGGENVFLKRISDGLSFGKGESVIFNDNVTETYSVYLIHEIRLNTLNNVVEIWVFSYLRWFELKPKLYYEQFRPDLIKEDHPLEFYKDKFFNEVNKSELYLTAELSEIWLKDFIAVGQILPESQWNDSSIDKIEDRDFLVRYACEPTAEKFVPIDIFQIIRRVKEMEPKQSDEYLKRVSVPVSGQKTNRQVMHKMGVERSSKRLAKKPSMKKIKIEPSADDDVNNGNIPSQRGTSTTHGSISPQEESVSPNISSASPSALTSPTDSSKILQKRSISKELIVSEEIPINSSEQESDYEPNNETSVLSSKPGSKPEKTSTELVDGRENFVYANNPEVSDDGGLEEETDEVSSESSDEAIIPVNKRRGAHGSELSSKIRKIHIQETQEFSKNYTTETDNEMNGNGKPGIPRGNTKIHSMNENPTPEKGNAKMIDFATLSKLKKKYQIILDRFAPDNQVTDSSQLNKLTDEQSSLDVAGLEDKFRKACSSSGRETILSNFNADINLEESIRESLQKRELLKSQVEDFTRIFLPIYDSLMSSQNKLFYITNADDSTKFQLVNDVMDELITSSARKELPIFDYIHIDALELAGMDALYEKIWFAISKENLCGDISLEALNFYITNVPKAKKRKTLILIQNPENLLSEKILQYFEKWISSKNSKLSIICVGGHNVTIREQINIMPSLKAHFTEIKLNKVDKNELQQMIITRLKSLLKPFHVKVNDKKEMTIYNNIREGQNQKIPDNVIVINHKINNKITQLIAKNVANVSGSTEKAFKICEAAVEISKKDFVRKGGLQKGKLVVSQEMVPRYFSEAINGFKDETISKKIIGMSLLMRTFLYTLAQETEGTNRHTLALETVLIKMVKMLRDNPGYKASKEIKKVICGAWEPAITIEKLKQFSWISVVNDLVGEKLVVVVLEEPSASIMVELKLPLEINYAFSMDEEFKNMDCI
UniProt P06700: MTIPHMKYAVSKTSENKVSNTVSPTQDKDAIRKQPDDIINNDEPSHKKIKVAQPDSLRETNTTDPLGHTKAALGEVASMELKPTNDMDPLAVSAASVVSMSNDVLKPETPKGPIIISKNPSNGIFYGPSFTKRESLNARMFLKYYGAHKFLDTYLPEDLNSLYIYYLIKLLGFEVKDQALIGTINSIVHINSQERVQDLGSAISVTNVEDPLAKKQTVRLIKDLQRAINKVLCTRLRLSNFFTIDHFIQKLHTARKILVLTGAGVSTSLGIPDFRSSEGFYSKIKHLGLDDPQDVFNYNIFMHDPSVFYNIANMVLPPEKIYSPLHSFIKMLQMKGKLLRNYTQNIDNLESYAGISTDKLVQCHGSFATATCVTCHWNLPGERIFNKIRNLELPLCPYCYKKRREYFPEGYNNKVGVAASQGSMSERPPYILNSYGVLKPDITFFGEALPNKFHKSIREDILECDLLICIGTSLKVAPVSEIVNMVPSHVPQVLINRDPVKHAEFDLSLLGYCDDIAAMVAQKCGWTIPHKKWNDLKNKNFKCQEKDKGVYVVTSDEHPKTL

[6] = target: T2, Sif2, two-hybrid bait (S. cerevisiae) (UniProt P38262); experiment: as above
T2 sequence: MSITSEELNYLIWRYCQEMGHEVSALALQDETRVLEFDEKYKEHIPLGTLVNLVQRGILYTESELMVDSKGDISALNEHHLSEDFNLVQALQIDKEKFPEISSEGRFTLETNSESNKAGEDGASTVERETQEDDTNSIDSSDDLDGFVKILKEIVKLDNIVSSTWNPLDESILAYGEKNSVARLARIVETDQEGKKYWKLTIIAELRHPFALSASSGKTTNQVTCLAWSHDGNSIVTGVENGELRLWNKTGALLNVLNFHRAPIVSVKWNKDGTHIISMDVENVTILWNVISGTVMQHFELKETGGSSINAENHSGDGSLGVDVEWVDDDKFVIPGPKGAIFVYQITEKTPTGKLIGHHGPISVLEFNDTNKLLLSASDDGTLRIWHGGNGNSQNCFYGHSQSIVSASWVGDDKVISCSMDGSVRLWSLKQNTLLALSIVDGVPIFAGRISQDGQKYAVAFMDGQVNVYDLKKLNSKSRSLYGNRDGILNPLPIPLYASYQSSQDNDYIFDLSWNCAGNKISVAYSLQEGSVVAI

[7] = target: T3, Yku80, two-hybrid bait (S. cerevisiae) (UniProt Q04437); experiment: as above
T3 sequence: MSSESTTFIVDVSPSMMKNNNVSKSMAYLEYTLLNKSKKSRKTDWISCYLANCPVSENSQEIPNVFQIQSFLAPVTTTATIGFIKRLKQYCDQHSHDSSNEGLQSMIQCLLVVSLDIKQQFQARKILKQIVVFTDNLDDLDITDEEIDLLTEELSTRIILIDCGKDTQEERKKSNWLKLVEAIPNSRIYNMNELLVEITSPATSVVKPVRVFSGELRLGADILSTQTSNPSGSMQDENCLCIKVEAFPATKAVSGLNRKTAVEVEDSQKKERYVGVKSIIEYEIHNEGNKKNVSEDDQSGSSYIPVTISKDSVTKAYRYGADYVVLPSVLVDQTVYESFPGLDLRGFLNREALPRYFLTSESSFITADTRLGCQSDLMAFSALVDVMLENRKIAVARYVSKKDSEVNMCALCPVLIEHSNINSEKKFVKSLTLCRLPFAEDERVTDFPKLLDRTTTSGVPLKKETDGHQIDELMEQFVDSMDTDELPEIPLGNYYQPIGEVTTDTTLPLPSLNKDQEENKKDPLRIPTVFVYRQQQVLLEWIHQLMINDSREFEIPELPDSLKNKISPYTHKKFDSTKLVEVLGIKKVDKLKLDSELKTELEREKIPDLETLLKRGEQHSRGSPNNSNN

Substance | binding [1] | binding [2] | binding [3] | binding [4] | binding [5] | binding [6] | binding [7]
Sir3 (from UniProt P06701 1-978) | binds | binds | binds | binds |  |  | 
Sir4N (Sir4 N-terminal domain, residues 1-270), two-hybrid prey (from UniProt P11978 1-270) (domain or fragment) |  |  |  |  | binds | binds | binds
Sir4N^DD (Sir4N S63D S84D), two-hybrid prey (from UniProt P11978 1-270) (domain or fragment) |  |  |  |  | binds | binds | binds

Next, values leading:

binding [1] | binding [2] | binding [3] | binding [4] | binding [5] | binding [6] | binding [7] | Substance
binds | binds | binds | binds |  |  |  | Sir2 (from UniProt P06700 1-562) (enzyme)
 |  |  |  | binds | binds | binds | Sir4N^GG (Sir4N S63G S84G), two-hybrid prey (from UniProt P11978 1-270) (domain or fragment)

Source: article PMC3359979
